Laboratory results published in the supplement of paper PMC10338343.
± gives the standard deviation. This is one part of the list. Many entries were measured with a wide error.

These sequences were tested on EfPiwi piRISC loaded with L1MC piRNA (26 nt) (assay: pre-steady-state target cleavage rate (min^-1); guide: L1MC piRNA 5'p-UAACUAAAUACUAUGCAAGCUGUAGG; MIWI and MILI are mouse PIWI proteins and EfPiwi is from a freshwater sponge; tags in brackets are library labels; higher = faster piRNA-guided slicing of the target). Conditions: auxiliary factor: 500 nM Ephydatia muelleri Gtsf1.
Summary of the method: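 Cleave-'n-Seq reactions paired 0.1 nM transcribed, DNA-blocked target RNA library with 1 nM active affinity-purified piRISC holding one synthetic guide, plus or minus 500 nM GTSF1 partner protein, in HEPES–potassium acetate buffer at 33 °C for 0–8 or 0–960 min. After sequencing of uncleaved targets and normalisation to depth and weakly complementary targets, the pre-steady-state cleavage rate was taken from a burst-and-steady-state fit. Three trials were pooled, and k3 was capped at 0.0001 min^-1.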

| Sequence | pre-steady-state target cleavage rate |
| --- | --- |
| UCCUGGUUCAGGUUGCAUAGUAUUUAGUUA | 0.0166 ± 0.0047 |
| UCCUGGUUCAGCUUGCAUACUAUUUAGUUA | 0.00751 ± 0.0031 |
| UCCUGGUACACCUUGCAAAGUAUUUAGUUA | 0.00239 ± 0.0034 |
| UCCUGGAUGUGCUUGCAUUGUAUUUUGUUA | 0.00049 ± 0.0093 |
| UCCUGGAUGUGCUUGCAUACUAUUAAGUUA | 0.00132 ± 0.0027 |
| UCCUGCUACAGCUUGCAUUGUAUUUUGUUA | 0.00346 ± 0.0021 |
| UCCUGGAUGUCCUUGCAUAGUACUUAGUUA | 0.00586 ± 0.0027 |
| UCCUGGAUGAGCUUGCAAAGUAUUAAGUUA | 0.00202 ± 0.0036 |
| UCCUGGUACAGCAUGCAUAGUAAUUAGUUA | 0.00882 ± 0.0034 |
| UCCUGCUACAGCUUGCAUAGUUUUUUGUUA | 0.00384 ± 0.0021 |
| UCCUGCUACAGCUUGCAUAGUAUUUGGUUA | 0.00556 ± 0.0012 |
| UCCUGGAUGAGCUUGCAUAGUCUUUAGUUA | 0.0107 ± 0.0033 |
| UCCUGGUUCACCUUGCAUAGUAUUUAGUUA | 0.0052 ± 0.0033 |
| UCCUGGAUCAGCUUUCAUAGUAUUUAGUUA | 0.0103 ± 0.0032 |
| UCCUGCUACACCUUGCAAAGUAUUUAGUUA | 0.00571 ± 0.0021 |
| UCCUGGAUCAGCUUGCAUAGUAUUUAGUGUA | 0.0168 ± 0.0061 |
| UCCUGGAUCAGCUUGCAUAGUAAUUAGUUA | 0.0264 ± 0.0082 |
| UCCUGGUACUGCUUGCAUAGUAUUUAGAUA | 0.00378 ± 0.0019 |
| UCCUGGAAGACCUUGCAUAGUAUUUAGUUA | 0.00668 ± 0.003 |
| UCCUGGUACUGCUUGCAUAGUAUUUUGUUA | 0.00243 ± 0.0031 |

Looked up above.
Entry of UCCUGGAAGACCUUGCAUAGUAUUUAGUUA under pre-steady-state target cleavage rate: 0.00668 ± 0.003
Entry of UCCUGGUACUGCUUGCAUAGUAUUUUGUUA under pre-steady-state target cleavage rate: 0.00243 ± 0.0031
Entry of UCCUGGUACAGCAUGCAUAGUAAUUAGUUA under pre-steady-state target cleavage rate: 0.00882 ± 0.0034

Further entries.

| Sequence | pre-steady-state target cleavage rate |
| --- | --- |
| UCCUGGAUCAGCUUGCAUAGUAGUUUAGUUA | 0.0107 ± 0.0033 |
| UCCUGCUACAGCUUGCAUAGUAUUUAGUUG [g2:g25:cont:t1G] | 0.00685 ± 0.0019 |
| UCCUGCUACAGCUAGCUUAGUAUUUAGUUA | 0.00973 ± 0.0029 |
| UCCUGGAACAGCUUGCAUAGUAUUUAGGUA | 0.00203 ± 0.0035 |
| UCCUGCUACAGCUUGCAAAGUAAUUAGUUA | 0.00362 ± 0.0019 |
| UCCUGGAACACCUUGCAUAGUAUAUAGUUA | 0.0051 ± 0.0035 |
| UCCUGGAACAGCUUGCAAGUAUUUAGUUA | 0.00284 ± 0.0019 |
| UCCUGCUACAGCUAGCAUAGUAUUUAGUAA | 0.00623 ± 0.002 |
| UCCUGGAUGUCGUUGCAUAGUAUUUAGUUA [g2:g18:cont:t1A] | 0.00621 ± 0.0026 |
| UCCUGGAUGAGCUAGCAUAGUAUUUAGUUA | 0.00597 ± 0.002 |
| UCCUGGAUGAGCUUGCAUAGUAAUUAGUUA | 0.0154 ± 0.0044 |
| UCCUGGAUGUCCUUGCAUAGUAUUCAGUUA | 0.000889 ± 0.0035 |
| UCCUGGAACAGCUAGGAUAGUAUUUAGUUA | 0.000949 ± 0.0072 |
| UCCUGGAACAGCUUGCUAUGUAUUUAGUUA | 0.00155 ± 0.0048 |
| UCCUGGUACAGCAUUGCAUAGUAUUUAGUUA | 0.0107 ± 0.004 |
| UCCUGGAUCAGCUUGCAUAGUACUUUAGUUA | 0.00735 ± 0.0023 |
| UCCUGGAACAGCUUGGAUAGUAUUUAGAUA | 0.00231 ± 0.0029 |
| UCCUGGUACAGCUAGCAAAGUAUUUAGUUA | 0.00688 ± 0.0029 |
| UCCUGGAUCUGCUUGCAUACUAUUUAGUUA | 0.00859 ± 0.0023 |
| UCCUGGAUGUCGAACGUAAGUAUUCUAGUUA | 0.000109 ± 0.023 |
